These results are taken from PMC10722681, “RGCC-mediated PLK1 activity drives breast cancer lung metastasis by phosphorylating AMPKα2 to activate oxidative phosphorylation and fatty acid oxidation” (Journal of Experimental & Clinical Cancer Research : CR, 2023).

Amino acid sequences for entries named in this document (tags omitted).
UniProt P53350: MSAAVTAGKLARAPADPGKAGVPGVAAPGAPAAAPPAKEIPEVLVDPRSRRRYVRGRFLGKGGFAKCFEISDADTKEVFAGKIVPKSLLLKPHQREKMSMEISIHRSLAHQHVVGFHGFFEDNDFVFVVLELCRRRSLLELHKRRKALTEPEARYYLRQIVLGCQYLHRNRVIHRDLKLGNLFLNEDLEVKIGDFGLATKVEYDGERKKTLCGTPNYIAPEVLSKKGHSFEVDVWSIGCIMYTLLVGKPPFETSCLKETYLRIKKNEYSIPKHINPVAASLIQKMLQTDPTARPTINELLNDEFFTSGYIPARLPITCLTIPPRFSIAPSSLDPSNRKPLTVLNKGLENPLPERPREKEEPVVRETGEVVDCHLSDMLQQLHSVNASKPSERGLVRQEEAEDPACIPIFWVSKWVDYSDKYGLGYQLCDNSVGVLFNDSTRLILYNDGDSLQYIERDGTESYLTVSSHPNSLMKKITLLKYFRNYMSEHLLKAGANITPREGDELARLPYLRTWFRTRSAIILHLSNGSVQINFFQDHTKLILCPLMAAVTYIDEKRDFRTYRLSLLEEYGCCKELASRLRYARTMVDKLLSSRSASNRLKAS

The target of the assay is T1, Response gene to complement 32 protein (RGCC) (human (endogenous in MDA-MB-231/LM3)) (UniProt Q9H4X1).
T1 sequence: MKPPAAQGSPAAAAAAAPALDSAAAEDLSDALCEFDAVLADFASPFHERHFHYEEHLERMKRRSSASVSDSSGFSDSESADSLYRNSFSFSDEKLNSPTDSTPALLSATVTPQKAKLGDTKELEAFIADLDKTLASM
Nature of the assay: affinity purification with mass spectrometry; MDA-MB-231/LM3 cells immunoprecipitated with anti-RGCC agarose beads; digest analysed by LC-MS/MS (Triple TOF 5600+).

Results are given in words; binding and its absence hold for the method and conditions named. In cells and extracts the contact can be indirect. Here binding means that the protein was enriched with, or labelled near, the bait; the list need not be complete.

Take PLK1 (from UniProt P53350 1-603): the binding entry is listed as “binds”.
